From publication PMC3897375, “Def1 Promotes the Degradation of Pol3 for Polymerase Exchange to Occur During DNA-Damage–Induced Mutagenesis in Saccharomyces cerevisiae” (PLoS Biology, 2014)

Assays:
[1] = biological target: T1, Rad5 with a C-terminal TAP tag (S. cerevisiae) (UniProt P32849); test: affinity purification with mass spectrometry; TAP of chromosomally TAP-tagged Rad5 from whole cell extract of untreated control cells (no MMS); IgG Sepharose (500 mM NaCl, 0.01% Nonidet P-40), TEV elution, calmodulin beads, EGTA elution; Coomassie gel, bands identified by MALDI-TOF
T1 sequence: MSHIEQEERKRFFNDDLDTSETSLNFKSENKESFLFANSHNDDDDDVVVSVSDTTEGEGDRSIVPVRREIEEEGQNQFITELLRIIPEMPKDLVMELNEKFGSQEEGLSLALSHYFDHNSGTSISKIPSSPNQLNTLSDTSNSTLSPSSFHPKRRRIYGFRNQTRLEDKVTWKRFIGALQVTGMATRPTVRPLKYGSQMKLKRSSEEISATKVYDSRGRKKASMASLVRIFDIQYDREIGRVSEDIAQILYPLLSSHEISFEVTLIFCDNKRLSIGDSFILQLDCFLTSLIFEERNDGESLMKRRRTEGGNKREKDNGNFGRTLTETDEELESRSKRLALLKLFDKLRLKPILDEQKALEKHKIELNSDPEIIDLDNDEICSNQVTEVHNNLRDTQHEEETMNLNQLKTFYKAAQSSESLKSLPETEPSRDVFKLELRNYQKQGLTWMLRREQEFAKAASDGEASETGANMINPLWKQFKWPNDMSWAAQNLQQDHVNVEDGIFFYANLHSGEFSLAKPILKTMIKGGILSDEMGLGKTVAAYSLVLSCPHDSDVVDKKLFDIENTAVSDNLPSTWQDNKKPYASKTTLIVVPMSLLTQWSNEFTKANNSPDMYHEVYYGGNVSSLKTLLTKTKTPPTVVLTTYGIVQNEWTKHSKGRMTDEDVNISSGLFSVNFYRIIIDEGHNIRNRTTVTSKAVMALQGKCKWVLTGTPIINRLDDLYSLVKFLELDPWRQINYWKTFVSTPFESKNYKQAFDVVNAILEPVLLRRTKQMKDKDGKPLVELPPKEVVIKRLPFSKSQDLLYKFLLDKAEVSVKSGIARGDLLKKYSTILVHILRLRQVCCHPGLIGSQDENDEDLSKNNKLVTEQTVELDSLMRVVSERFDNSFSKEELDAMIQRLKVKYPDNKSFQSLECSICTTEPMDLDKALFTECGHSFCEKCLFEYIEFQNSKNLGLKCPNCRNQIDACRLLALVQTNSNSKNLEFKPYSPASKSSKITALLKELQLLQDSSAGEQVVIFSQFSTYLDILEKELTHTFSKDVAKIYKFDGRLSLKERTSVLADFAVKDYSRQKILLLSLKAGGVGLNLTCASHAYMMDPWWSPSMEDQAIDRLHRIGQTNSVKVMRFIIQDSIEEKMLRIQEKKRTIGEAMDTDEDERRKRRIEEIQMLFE

[2] = biological target: T1, Rad5 with a C-terminal TAP tag (S. cerevisiae); test: affinity purification with mass spectrometry; TAP of chromosomally TAP-tagged Rad5 from whole cell extract of cells treated with 0.02% MMS for 2 h; IgG Sepharose (500 mM NaCl, 0.01% Nonidet P-40), TEV elution, calmodulin beads, EGTA elution; Coomassie gel, bands identified by MALDI-TOF

binding [2]: binds
B1: Def1 (protein, UniProt P35732 1-738)
chain: MSTQFRKSNHNSHSSKKLNPALKSKIDTLTELFPDWTSDDLIDIVQEYDDLETIIDKITSGAVTRWDEVKKPAKKEKYEKKEQQHSYVPQQHLPNPEDDITYKSSNNSNSFTSTKHNSSNNYTQARNKKKVQTPRAHTTGKHVNLDKGKHVPSKPVSNTTSWAAAVSVDTKHDVPQDSNDNNNEELEAQGQQAQEKNQEKEQEEQQQQEGHNNKEEHKQIEQPSLSSKKTTSRTSASQPKKMSWAAIATPKPKAVKKTESPLENVAELKKEISDIKKDDQKSEASEEKVNEQETSAQEQEEETAEPSEENEDRVPEVDGEEVQEEAEKKEQVKEEEQTAEELEQEQDNVAAPEEEVTVVEEKVEISAVISEPPEDQANTVPQPQQQSQQPQQPQQPQQPQQPQQPQQQQQPQQPQQPQQQLQQQQQQQQQPVQAQAQAQEEQLSQNYYTQQQQQQYAQQQHQLQQQYLSQQQQYAQQQQQHPQPQSQQPQSQQSPQSQKQGNNVAAQQYYMYQNQFPGYSYPGMFDSQGYAYGQQYQQLAQNNAQTSGNANQYNFQQGYGQAGANTAAANLTSAAAAAAASPATAHAQPQQQQPYGGSFMPYYAHFYQQSFPYGQPQYGVAGQYPYQLPKNNYNYYQTQNGQEQQSPNQGVAQHSEDSQQKQSQQQQQQQPQGQPQPEVQMQNGQPVNPQQQMQFQQYYQFQQQQQQAAAAAAAAAQQGVPYGYNGYDYNSKNSRGFY
binding [1]: no binding (only cells without MMS treatment)

These are yes or no findings as the source states them, for the method shown. Binding seen in cells or lysates may run through a third protein. Here binding means that the protein was enriched with, or labelled near, the bait; the list need not be complete. For some assays here: A no says only that the protein was not detected with the bait. Sequences can lack the tags named with a protein.
